# Screening data, single-dose tests

Amino acid sequences for entries named in this document (tags omitted). Residues count along the entry.
UniProt Q8IDJ8, 1-583: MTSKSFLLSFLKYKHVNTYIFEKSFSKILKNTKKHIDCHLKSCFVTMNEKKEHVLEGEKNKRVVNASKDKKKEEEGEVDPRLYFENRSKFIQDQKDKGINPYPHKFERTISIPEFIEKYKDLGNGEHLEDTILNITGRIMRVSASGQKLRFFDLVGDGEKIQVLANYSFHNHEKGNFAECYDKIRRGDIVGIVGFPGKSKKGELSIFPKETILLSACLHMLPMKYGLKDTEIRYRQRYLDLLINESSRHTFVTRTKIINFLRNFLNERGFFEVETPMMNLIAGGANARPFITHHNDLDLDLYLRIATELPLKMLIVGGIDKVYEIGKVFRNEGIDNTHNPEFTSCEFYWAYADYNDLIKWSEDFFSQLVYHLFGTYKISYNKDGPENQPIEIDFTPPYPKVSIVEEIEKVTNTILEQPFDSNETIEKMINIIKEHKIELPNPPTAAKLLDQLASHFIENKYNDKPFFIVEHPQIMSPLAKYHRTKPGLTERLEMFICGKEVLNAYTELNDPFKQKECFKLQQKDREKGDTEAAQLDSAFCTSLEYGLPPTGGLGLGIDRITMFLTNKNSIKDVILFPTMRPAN
UniProt A4I591, 1-473: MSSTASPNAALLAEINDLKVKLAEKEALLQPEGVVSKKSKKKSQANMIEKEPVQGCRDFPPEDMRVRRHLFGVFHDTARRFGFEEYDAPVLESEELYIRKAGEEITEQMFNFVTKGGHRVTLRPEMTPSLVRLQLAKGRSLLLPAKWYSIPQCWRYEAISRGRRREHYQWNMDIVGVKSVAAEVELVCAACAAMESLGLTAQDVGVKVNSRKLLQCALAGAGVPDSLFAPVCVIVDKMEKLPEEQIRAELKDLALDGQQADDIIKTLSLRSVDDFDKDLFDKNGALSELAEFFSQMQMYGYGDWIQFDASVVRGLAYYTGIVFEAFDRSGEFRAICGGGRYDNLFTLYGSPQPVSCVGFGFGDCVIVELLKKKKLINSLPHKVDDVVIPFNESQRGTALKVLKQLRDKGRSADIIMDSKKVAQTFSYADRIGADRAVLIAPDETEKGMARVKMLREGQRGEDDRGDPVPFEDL

From ChEMBL document CHEMBL3988442, “University of Dundee, Small-Polar-MMV Screening Library” (2021).

Leishmania in macrophages: 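Cell assay of Leishmania donovani living inside macrophages; the read-out is not stated. Compounds at 30 µM. Direction is inferred from retests: higher values go with stronger inhibition. Of about 69,000 compounds tested this way, about 1,000 (1.5%) reached 50% or more in at least one test.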
PfKRS1: 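Lysine-tRNA ligase, Plasmodium falciparum 3D7 (UniProt Q8IDJ8). Enzyme assay of the cytosolic lysyl-tRNA synthetase in 384-well plates, read by luminescence. Tested at 30 µM. Higher reads as stronger inhibition, judged from the few compounds that gave an IC50. Of about 69,000 compounds tested this way, about 49 (0.071%) reached 50% or more in at least one test.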
LiHisRS: 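Enzyme assay of histidyl-tRNA synthetase; the read-out is not stated. Target: Histidine-tRNA ligase, Leishmania infantum (UniProt A4I591). Concentration: 30 µM. Higher reads as stronger inhibition (inferred: compounds with an IC50 in retests scored well above the rest). The assay is labelled LdHisRS but filed under L. infantum. About 69,000 compounds were tested under these conditions; 0.6% (about 410) showed 50% or more at least once.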

Values are the deposited “Percent Effect”, in %.
The controls that fix the scale are not given in the record; negative values are as filed.
The compounds are a random part of those screened.
A dash means the value is not listed here; it may have been measured.

| SMILES | Leishmania in macrophages | PfKRS1 | LiHisRS |
|---|---|---|---|
| `CCc1noc(CC)c1CC(=O)N1CCC(C(=O)NC(C)C)CC1` | 17.95 | 2.903 | 12.7 |
| `NCc1cn(-c2ccccc2C(=O)NCc2cccc(Cl)c2)cn1` | -2.973 | 9.663 | 11.43 |
| `CCS(=O)(=O)N1CCCn2cnc(COc3cccnc3)c2C1.O=C(O)C(F)(F)F` | 7.062 | - | - |
| `O=C(O)[C@@H]1CN(CC2CCC2)C[C@H]1c1ccc(F)cc1` | 14.15 | -0.6317 | 15.71 |
| `CN(C(=O)c1cccc2[nH]ncc12)C1CCN(c2ccccn2)CC1` | -37.63 | -0.9929 | -5.333 |
| `O=C(c1cc[nH]n1)N(Cc1cccc(O)c1)CC1CC1` | 6.593 | -1.92 | 2.151 |
| `O=C(NCc1cnc2n1CCN(CC1CC1)C2)C1CC1.O=C(O)C(F)(F)F` | -14.97 | - | - |
| `CCC(CNC(=O)NCc1cc[nH]n1)N1CCCC1` (centres undefined) | 10.3 | 5.64 | 9.836 |
| `CC(=O)NCC(=O)NC1CCc2c(ccc(=O)n2CC2CC2)C1` (centres undefined) | 15.96 | 0.6085 | 12.82 |
| `Cc1ccc(CN2CCN(C(=O)c3ccccc3O)C(C)C2=O)cc1` (centres undefined) | -4.245 | 4.253 | 12.24 |
| `O=C(O)C(F)(F)F.[H][C@@]12CCN(Cc3ccccc3C)C[C@]1([H])O[C@@H](C(=O)N(C)C)C2` | 27.27 | - | - |
| `CCC(=O)N1CCN(C(=O)CCn2cccn2)CC1` | 21.17 | 6.079 | 24.62 |
| `COc1cncc(N2CCN(Cc3cccn3C)CC2)n1` | 7.12 | 4.607 | 13.16 |
| `[H][C@@]12CN(Cc3cccnc3)CCO[C@]1([H])CN(Cc1scnc1C)C2` | 9.32 | - | - |
| `Cn1ncc(NCc2cc(F)cc(F)c2)c(Cl)c1=O` | 2.406 | 5.036 | 17.57 |
| `Cc1cnc(C(=O)N2CCC3(CCN3Cc3ccc(F)cc3)C2)cn1.O=C(O)C(F)(F)F` (centres undefined) | 28.56 | - | - |
| `Cc1nn(C)c(N2CCOCC2)c1CNC1COc2ccccc2C1` (centres undefined) | 6.69 | -3.091 | 10.17 |
| `O=C(NCCc1ccco1)Nc1cc(C(F)(F)F)c[nH]c1=O` | 30.51 | 19.73 | 7.339 |
| `CC(C)N1[C@@H](C(=O)NCCN(C)C)C[C@H]2CN(c3ncccn3)C[C@H]21` | - | -2.578 | 7.895 |
| `CSCC(C)(O)CNS(=O)(=O)c1cccc(C)c1` (centres undefined) | 28.74 | 4.944 | 17.33 |
| `Cc1ccc(CN2Cc3nnn(C)c3C(COCc3ccccc3)C2)o1.O=C(O)C(F)(F)F` (centres undefined) | 26.34 | - | - |
| `O=C(NCCCO)Nc1cccc(Cl)c1F` | 25.76 | 4.022 | 18.27 |
| `CCc1oc(C(=O)N(C)Cc2nonc2C)cc1CN(CC)CC` | -23.61 | -1.396 | 12.09 |
| `CC(=O)N1Cc2ccccc2CC1C(=O)Nc1cc(C)ccn1` (centres undefined) | -3.325 | 0.0856 | 18.33 |
| `CCc1ocnc1C(=O)N1CCCC1c1noc(C)n1` (centres undefined) | 15.86 | 1.601 | 7.339 |
| `c1ccc2[nH]c(C3CCN(Cc4nc(C5CC5)no4)CC3)cc2c1` | 13.79 | 5.117 | 19.18 |
| `O=C(c1cn(Cc2ccccc2)c2ncccc12)N1CCCCC1` | 24.55 | 5.234 | 15.84 |
| `COc1cccc(CN(C)C(=O)CCC(=O)c2ccc(Cl)cc2)c1OC` | 22.23 | 1.246 | 15.24 |
| `CCN(CC)C(=O)CN1CCCC(c2nc(C)c3c(n2)N(C)CCC3)C1` (centres undefined) | 94.66 | 3.443 | 12.68 |
| `O=C(CCn1ccc2ccccc21)N1CCC(Nc2cccnn2)CC1` | 23.24 | 8.118 | 14.52 |
| `CC(=O)N1CCCN(C(=O)c2oc(Br)cc2C)CC1` | -4.532 | 1.041 | 15.38 |
| `CCOc1ccccc1C(=O)NS(=O)(=O)c1ccc2c(c1)OCCCO2` | -0.4696 | 4.572 | -4.545 |
| `c1cc(-c2nnn3c2COC(CNCC2CCOCC2)C3)ccn1` (centres undefined) | -4.966 | -0.4229 | 20 |
| `CCN(CC)CCn1ccnc1-c1cccc(C#N)c1` | -29.32 | 1.189 | 22.39 |
| `CC(C)Oc1ccc2c(NC(=O)[C@H](C)O)nn(CC(F)(F)F)c2c1` | -68.28 | 3.125 | 18.18 |
| `O=C1CCSCC(C(=O)N2CCOCC2)N1` (centres undefined) | 14.14 | 4.022 | 13.46 |
| `Cc1ccc(CNC(=O)COc2ccc3c(c2)OCC3O)cc1` (centres undefined) | 2.472 | 0.189 | 3.571 |
| `CCc1nc(CN2CCCC(NCc3cnc(C)s3)C2)no1` (centres undefined) | 10.17 | -3.519 | 20 |
| `C[C@@H]1CN(c2ccc(C#N)cn2)CC[C@@]1(O)C1CCOCC1` | -24.68 | -1.731 | 12.94 |
| `OCC(CO)N1CCCC(Cc2cnc(Nc3ccccn3)cn2)C1` (centres undefined) | 38.48 | 0.2276 | 24.64 |
| `CC(=O)N1CCC(CCNC(C)c2cc(C)cc(C)c2)CC1` (centres undefined) | -10.79 | -1.033 | 8.219 |
| `O=C(O)c1ccccc1-n1cc(CN2CCC(c3cc[nH]n3)C2)cn1` (centres undefined) | -8.757 | 0.7403 | 11.51 |
| `CC(C)(C)C(=O)N1CCN(Cn2nccc2-c2cccnc2)CC1` | 7.096 | 1.21 | -119.9 |
| `Cl.O=C(C1CCCCC1)N1CCC2(CC1)CNCc1ccccc12` | -5.571 | - | - |
| `CCc1ccc2c(c1)C(CCNC(=O)CSC(F)(F)F)C(=O)N2` (centres undefined) | -1.015 | 6.276 | 2.632 |
| `CCc1nc2ccccc2n1C(CC)C(=O)N(C)Cc1noc(C)n1` (centres undefined) | -10.17 | 1.601 | 9.756 |
| `COc1ccc(NC(=O)c2nc(C)sc2C(C)C)cn1` | -0.7812 | -1.547 | 12.09 |
| `Cc1nn(C)c(C)c1CCC(=O)N(C)Cc1ccc2nsnc2c1` | 33.41 | 1.454 | 1.075 |
| `CS(=O)(=O)Nc1ccc(-n2c(CCCO)nc3ccccc32)cn1` | 10.52 | 4.933 | 32.79 |
| `O=C(Cn1ccc2ccc(F)cc21)NC[C@@H]1CCCN2CCCC[C@H]12` | - | -0.8733 | -5.435 |
| `O=C1NCCN1C1CCN(Cc2coc(-c3ccccc3)n2)CC1` | 22.58 | -2.83 | 9.821 |
| `O=C(Nc1ccccc1)c1cc2n(n1)CCCN(C(=O)c1ccc[nH]1)C2` | -37.34 | -3.723 | 7.692 |

Some entries from above, unchanged:

{"smiles": "COc1cncc(N2CCN(Cc3cccn3C)CC2)n1", "Leishmania in macrophages": 7.12, "PfKRS1": 4.607, "LiHisRS": 13.16}
{"smiles": "O=C(c1cn(Cc2ccccc2)c2ncccc12)N1CCCCC1", "Leishmania in macrophages": 24.55, "PfKRS1": 5.234, "LiHisRS": 15.84}
{"smiles": "CCc1oc(C(=O)N(C)Cc2nonc2C)cc1CN(CC)CC", "Leishmania in macrophages": -23.61, "PfKRS1": -1.396, "LiHisRS": 12.09}
{"smiles": "O=C(O)C(F)(F)F.[H][C@@]12CCN(Cc3ccccc3C)C[C@]1([H])O[C@@H](C(=O)N(C)C)C2", "Leishmania in macrophages": 27.27}
{"smiles": "NCc1cn(-c2ccccc2C(=O)NCc2cccc(Cl)c2)cn1", "Leishmania in macrophages": -2.973, "PfKRS1": 9.663, "LiHisRS": 11.43}